Reference: PubChem BioAssay AID493014 (National Center for Advancing Translational Sciences (NCATS), 2011)
This is one part of the list. These are further read-outs of the screen, such as a control signal, another cell line or another target. No call is given for them. The list favours compounds with an active or inconclusive main result. The note in brackets gives the kind of curve behind each potency; many fits are weak.

Assay: qHTS Assay to Find Inhibitors of Chronic Active B-Cell Receptor Signaling
Conditions: ABC-DLBCL IkBa-CBG/CBR reporter, luminescence ratio (green luciferase fused to IkBa over red control in TMD8 lymphoma cells), 4 h
Method in brief: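 Doxycycline induced both beetle luciferases in TMD8 lymphoma cells; IKK-driven degradation limits the IkappaBalpha-fused green signal, while red luminescence normalises for cell number and nonspecific effects. Compounds tested up to 46 uM, 4 hrs.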

[1] = measured here: CBR red luminescence, cell number
[2] = measured here: IkBa-CBG green luminescence

Row | Compound | AC50 [1] | AC50 [2]
1 | CCCCN1CC[C@@H]2C=CC[C@H](C(=O)OC)[C@@H]2C1=O | 25.9 µM [rising, single point] | –
2 | COc1cccc(NC(=O)CSc2nc3n[nH]c(C)c3c(=N)n2-c2cccc(OC)c2)c1 | 7.08 µM [falling, partial curve] | –
3 | COc1cccc(CNC(=O)c2ccc(NS(=O)(=O)c3ccc4[nH]c(=O)[nH]c4c3)cc2)c1 | 32.6 µM [rising, single point] | –
4 | COc1cccc(N/C(C)=C/C(=O)c2ccc(Br)cc2)c1 | 32.6 µM [falling, single point] | –
5 | COc1cc(/C=C/C(=O)OCC(=O)NCc2ccc(F)cc2)ccc1O | 29.1 µM [rising, single point] | 20.6 µM [falling, single point]
6 | COc1ccc(CC(=O)NC(C)c2nnc(SCC(=O)c3ccc(Br)cc3)n2C)cc1 (centres undefined) | 29.1 µM [falling, single point] | 29.1 µM [rising, partial curve, poor fit]
7 | CCCCC/C=N/NC(=O)c1[nH]c2ccc([N+](=O)[O-])cc2c1C | 8.91 µM [falling, partial curve] | –
8 | C/C(N)=C(/C#N)C(=O)CSc1nc2ccccc2c(=O)n1Cc1ccc(F)cc1 | 8.91 µM [falling, single point] | –
9 | O=C(NCCN1CCN(c2ccccc2)CC1)Nc1ccccc1Br | 35.5 µM [rising, single point] | –
10 | N#C/C(=C/c1ccc(Br)o1)C(N)=O | 23.1 µM [falling, single point] | –
11 | O=C(Oc1ccccc1/C=C\C(=O)c1cc2ccccc2o1)c1cccc(F)c1 | 0.517 µM [falling, full curve] | –
12 | CNC(=O)CSc1nc2ccccc2c(=O)n1-c1cc(OC)ccc1OC | 3.55 µM [rising, single point] | –
13 | CC(C)C[C@H]1CN=C(Nc2ccccc2)N1CCCC1CCCCC1 | 17.8 µM [falling, single point] | –
14 | C/C(=N\Nc1cc(C)nc(-c2ccccc2O)n1)c1ccccc1 | 11.2 µM [falling, single point] | 0.447 µM [rising, full curve, poor fit]
15 | COc1cccc(OCCCn2ccnc2)c1 | 2.82 µM [falling, partial curve, poor fit] | –
16 | COc1cc(N/C(N)=N/c2nc(C)cc(C)n2)cc(OC)c1 | 35.5 µM [falling, single point] | –
17 | O=C(O)c1ccccc1C(=O)Nc1cc(-c2ccccc2)[nH]n1 | 35.5 µM [falling, single point] | –
18 | O=C(Nc1cccc(NC(=O)c2ccc(Br)o2)c1)c1ccccc1 | 1.58 µM [falling, full curve] | –
19 | CC(C)N1C(=O)S/C(=C\c2ccc(-c3ccc(Cl)c(C(=O)O)c3)o2)C1=O | 12.6 µM [falling, partial curve, poor fit] | –
20 | CC1=C(CC(=O)O)c2cc(F)ccc2/C1=C\c1ccc(S(C)=O)cc1 (centres undefined) | 3.98 µM [rising, single point] | –

Excerpt, compounds 1 to 2
Row | Compound | AC50 [1] | AC50 [2]
1 | CCCCN1CC[C@@H]2C=CC[C@H](C(=O)OC)[C@@H]2C1=O | 25.9 µM [rising, single point] | –
2 | COc1cccc(NC(=O)CSc2nc3n[nH]c(C)c3c(=N)n2-c2cccc(OC)c2)c1 | 7.08 µM [falling, partial curve] | –

Later entries:

Row | Compound | AC50 [1] | AC50 [2]
21 | CCN(CC)CCCNc1nc2cc(OC)c(OC)cc2c2nc(-c3cccnc3)nn12 | 1.16 µM [falling, full curve] | 29.1 µM [falling, single point]
22 | CN(C)S(=O)(=O)N1CCN(CC(O)COc2ccc(-c3ccccc3)cc2)CC1 (centres undefined) | 31.6 µM [rising, partial curve, poor fit] | –
23 | Cc1c(N=C2NN=C(c3ccc(Cl)cc3)CS2)c(=O)n(-c2ccccc2)n1C | 15.8 µM [falling, single point] | –
24 | CCCC(=O)Nc1ccc2c(c1)nc(CN1CCN(C(=O)OCC)CC1)n2CC | 3.98 µM [rising, partial curve, poor fit] | 11.2 µM [falling, partial curve]
25 | O=C(Nc1nnc(CSCc2ccccc2F)s1)c1cccc([N+](=O)[O-])c1 | 1.46 µM [rising, partial curve, poor fit] | –
26 | CCOC(=O)CCC(=O)Nc1ccccc1C(N)=O | 0.731 µM [falling, partial curve, poor fit] | –
27 | Cc1ccc(S(=O)(=O)Cc2cc(F)c([N+](=O)[O-])cc2[N+](=O)[O-])cc1 | 3.98 µM [falling, full curve] | –
28 | Cc1ccc(CNC(=O)COC(=O)c2ccc(S(=O)(=O)NCc3ccco3)cc2)cc1 | 2.06 µM [rising, partial curve] | –
29 | CNc1ccccc1C(=O)OC(C)C(=O)Nc1ccc(Cl)cn1 (centres undefined) | 35.5 µM [falling, single point] | –
30 | Cc1ccc(-c2nnc(SCC(=O)N/N=C/c3ccc(C)s3)n2-c2ccc(C)cc2)cc1 | 8.2 µM [rising, partial curve, poor fit] | –
31 | O=C1N(c2ccccc2)C2CS(=O)(=O)CC2N1c1ccc(Br)cc1 (centres undefined) | 14.6 µM [rising, partial curve, poor fit] | –
32 | COc1ccc2nc(Nc3nc4cc5c(cc4s3)OCO5)sc2c1 | 4.11 µM [rising, partial curve] | –
33 | CN(C)CCCNC(=O)c1cc(S(=O)(=O)N2CCOCC2)ccc1F | 0.00411 µM [rising, full curve, poor fit] | –
34 | Nc1ccc(C(=O)Nc2ccc3nc(-c4ccncc4)[nH]c3c2)cc1 | 8.91 µM [falling, partial curve] | –
35 | COc1cc2[nH]c(=S)nc(NCc3cccs3)c2cc1OC | 7.94 µM [falling, partial curve, poor fit] | –
36 | CC(=O)Nc1cccc(NS(=O)(=O)c2cccc3nsnc23)c1 | 0.92 µM [rising, partial curve, poor fit] | –
37 | CCN(CC)CCNC(=O)CSc1c2c(nc3cc(Cl)ccc13)CCCC2 | 12.6 µM [falling, partial curve, poor fit] | –
38 | CC(C)(C)c1nnc(NC(=S)Nc2ccccc2)s1 | 2.24 µM [falling, full curve] | –
39 | CCOC(=O)c1cnc2ccc(C)cc2c1N(C)Cc1ccccc1 | 35.5 µM [falling, single point] | –

Some values from the list.
CCN(CC)CCCNc1nc2cc(OC)c(OC)cc2c2nc(-c3cccnc3)nn12 | AC50 [1]: 1.16 µM [falling, full curve]
CC(C)(C)c1nnc(NC(=S)Nc2ccccc2)s1 | AC50 [1]: 2.24 µM [falling, full curve]
